Measurements reported in patent publication US20050152901A1.

Columns and labels:
[1] = target: IFNAR1 on peripheral blood leucocytes / B cells of cotton-top tamarin (Sanguinus oedipus) (cotton-top tamarin (Sanguinus oedipus)); assay: flow cytometry of IFNAR1 on white blood cells of treated tamarins (receptor occupancy in vivo)
[2] = target: IFNAR1 on peripheral blood leucocytes / B cells of cotton-top tamarin (Sanguinus oedipus) (cotton-top tamarin (Sanguinus oedipus)); assay: flow cytometry on isolated tamarin peripheral blood leucocytes

- binding [1]: binds
- binding [2]: binds
B1: CPI-1697, humanized anti-IFNAR-1 antibody (heavy chain H3, light chain K1) (antibody, human IgG4, V domains shown)
VH: EVQLVESGGGLVQPGGSLRLSCAFSGFTLSTSGMGIGWVRQAPGKGLEWVAHWWDDDKYYNPSLKSRFTISRDTSKNTVYLQMNSLRAEDTAVYYCARNYYPYDAWFDYWGQGTLVTVS
VL: DIQMTQSPSSLSASVGDRVTITCSASSSINSNHLHWYQQKPGKAPKLLIYRTSILASGVPSRFSGSGSGTSFTLTISSLQPEDFATYYCQQGSNIPFTFGQGTKVEIKR

Results are given in words; binding and its absence hold for the method and conditions named. Binding calls can cover weak binding; strength is not graded here.
